Test results reported in paper PMC7504119.
No constants are given. Whether binding was seen depends on the method and setting. In cells and extracts the contact can be indirect. Some binding calls cover weakened binding; strength is not graded here.

Protein sequences, listed by entry. Tags and fused reporters are not part of them. Residues count along the entry.
UniProt P25705, residues 44-553: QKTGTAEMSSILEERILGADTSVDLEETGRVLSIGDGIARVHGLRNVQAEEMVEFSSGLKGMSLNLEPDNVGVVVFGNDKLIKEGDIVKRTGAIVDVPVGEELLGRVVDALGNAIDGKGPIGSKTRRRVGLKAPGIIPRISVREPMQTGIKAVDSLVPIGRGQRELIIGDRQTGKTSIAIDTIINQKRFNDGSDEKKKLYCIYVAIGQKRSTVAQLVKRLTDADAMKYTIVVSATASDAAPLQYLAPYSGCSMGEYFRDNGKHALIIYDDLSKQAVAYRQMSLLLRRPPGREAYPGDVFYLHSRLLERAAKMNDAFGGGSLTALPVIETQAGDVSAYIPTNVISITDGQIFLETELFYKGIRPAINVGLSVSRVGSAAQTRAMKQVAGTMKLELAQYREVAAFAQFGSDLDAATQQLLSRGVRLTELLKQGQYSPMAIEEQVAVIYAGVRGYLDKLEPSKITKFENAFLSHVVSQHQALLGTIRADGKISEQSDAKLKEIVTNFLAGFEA

Target: endogenous ATP5A (HEK293) (human (endogenous in HEK293)) (UniProt P25705)
Assay: co-IP; endogenous ATP5A immunoprecipitated from HEK293 with anti-ATP5A on protein G/A beads, immunoblot for Sestrin2; cells treated with 10 μM CCCP 2 h, 500 μM CuSO4 6 h or 400 μM H2O2 6 h

- binding: binds
B1: endogenous Sestrin2 (HEK293) (protein, UniProt P58004 1-480)
chain: MIVADSECRAELKDYLRFAPGGVGDSGPGEEQRESRARRGPRGPSAFIPVEEVLREGAESLEQHLGLEALMSSGRVDNLAVVMGLHPDYFTSFWRLHYLLLHTDGPLASSWRHYIAIMAAARHQCSYLVGSHMAEFLQTGGDPEWLLGLHRAPEKLRKLSEINKLLAHRPWLITKEHIQALLKTGEHTWSLAELIQALVLLTHCHSLSSFVFGCGILPEGDADGSPAPQAPTPPSEQSSPPSRDPLNNSGGFESARDVEALMERMQQLQESLLRDEGTSQEEMESRFELEKSESLLVTPSADILEPSPHPDMLCFVEDPTFGYEDFTRRGAQAPPTFRAQDYTWEDHGYSLIQRLYPEGGQLLDEKFQAAYSLTYNTIAMHSGVDTSVLRRAIWNYIHCVFGIRYDDYDYGEVNQLLERNLKVYIKTVACYPEKTTRRMYNLFWRHFRHSEKVHVNLLLLEARMQAALLYALRAITRYMT
